In patent publication EP1313504B1:
These are yes or no findings as the source states them, for the method shown. Some entries that bind do so weakly or less than the wild type.

Protein sequences, listed by entry. Tags and fused reporters are not part of them. Residues count along the entry.
UniProt P04272, residues 2-339: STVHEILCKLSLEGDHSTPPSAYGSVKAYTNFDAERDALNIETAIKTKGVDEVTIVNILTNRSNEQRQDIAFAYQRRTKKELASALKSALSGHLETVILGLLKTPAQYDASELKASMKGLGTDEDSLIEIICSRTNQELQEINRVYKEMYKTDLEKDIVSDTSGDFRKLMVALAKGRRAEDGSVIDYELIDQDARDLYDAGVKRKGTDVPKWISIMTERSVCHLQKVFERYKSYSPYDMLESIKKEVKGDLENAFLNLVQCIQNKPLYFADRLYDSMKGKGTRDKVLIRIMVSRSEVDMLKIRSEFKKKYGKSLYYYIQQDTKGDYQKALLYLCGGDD
UniProt P00747, residues 99-459: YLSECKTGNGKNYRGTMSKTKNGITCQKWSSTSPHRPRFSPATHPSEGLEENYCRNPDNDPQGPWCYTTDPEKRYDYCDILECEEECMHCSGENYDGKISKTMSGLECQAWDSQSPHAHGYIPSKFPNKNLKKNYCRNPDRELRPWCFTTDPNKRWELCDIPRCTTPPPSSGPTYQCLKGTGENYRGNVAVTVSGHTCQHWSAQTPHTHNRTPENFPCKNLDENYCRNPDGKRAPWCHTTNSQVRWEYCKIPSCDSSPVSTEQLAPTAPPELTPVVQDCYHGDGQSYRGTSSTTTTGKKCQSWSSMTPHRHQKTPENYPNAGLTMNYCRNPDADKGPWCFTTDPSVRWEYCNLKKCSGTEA

Experiments:
[1] = target: annexin II (35 kDa angiostatin binding protein from bovine aortic endothelial cells) (bovine) (UniProt P04272); test: ligand blot of BAEC lysate
[2] = target: annexin II (35 kDa angiostatin binding protein from bovine aortic endothelial cells) (bovine) (UniProt P04272); test: ligand immunoblot of BAEC membrane fraction, angiostatin 1 µg/ml, detected with anti-K1-3 antibody
[3] = target: annexin II (35 kDa angiostatin binding protein from bovine aortic endothelial cells) (bovine) (UniProt P04272); test: ligand blot of BAEC subcellular fractions
[4] = target: annexin II (35 kDa angiostatin binding protein from bovine aortic endothelial cells) (bovine) (UniProt P04272); test: ligand blot of purified 35 kDa fractions, angiostatin 1 µg/ml

Measured: binding

angiostatin (38 kDa elastase fragment of human plasminogen, kringle 1-4) (from UniProt P00747 99-459) (ligand)
binds: all assays above
